Earlier results as cited in paper PMC3264873 (Pharmaceutical Research, 2011).

Settings: amprenavir recalculated from fosamprenavir data; ref [23]–[28]; cited from earlier work

CC(C)OC(=O)C(C)(C)Oc1ccc(C(=O)c2ccc(Cl)cc2)cc1 [Fenofibrate]
Imax, maximum systemic plasma concentration of the inhibitor: 29.8 µM
